SMILES strings stand for the structures. Several values for one entry are separate records, joined by “and”; a condition that tells them apart may be missing. Equal values may be shown once. Some of the results follow. Shown are side measurements of this screen, not its main read-out; they come without a call. Most of these compounds were active or inconclusive in the main read-out, so they are no random draw. The note in brackets gives the kind of curve behind each potency; many fits are weak.

The nature of the experiment: qHTS Assay for Modulators of Lamin A Splicing. The conditions noted are these: HeLa LMNA splicing GFP/RFP minigene ratio, 48 h. The essentials: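 Read-out is the ratio of GFP to DsRed2 object intensity, acquired by 488 nm laser-scanning cytometry on HeLa lamin A-EGFP minigene reporter cells. Compound incubation 48 hrs at 37 °C in Opti-MEM with 2% FBS; DMSO 0.5% final.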

[1] abbreviates: measured here: RFP viability control channel.
Setting [2] is: measured here: GFP splicing reporter channel.

On to `Cn1cc(CNC(=O)c2sc3cccc(Cl)c3c2Cl)cn1`, for which, under setting [1], the AC50 is 35.5 µM [rising, single point].

Take `CCc1ccc(C(=O)NNc2ccc(F)cc2)cc1`: the half-maximal activity concentration (AC50) under setting [2] is 22.4 µM [rising, partial curve, poor fit].

On to `Cc1ccc(NC(=O)c2ccc(=O)n(CC(=O)Nc3cccc(C)c3)n2)cc1`, for which the concentration at half-maximal activity (AC50) reads like this: under setting [2], 0.141 µM [falling, full curve, poor fit]; under setting [1], 0.158 µM [falling, full curve, poor fit].

As for `CCC(C)c1ccc(OCCn2ccnc2)cc1` (stereo not given), the AC50 under setting [2] is 14.1 µM [rising, partial curve, poor fit] and the concentration at half-maximal activity (AC50) under setting [1] is 20 µM [rising, single point].

Turning to `COc1ccc2cc(C(N)=O)c(=Nc3ccc(C)cc3)oc2c1`, the half-maximal activity concentration (AC50) under setting [1] was 35.5 µM [falling, partial curve, poor fit].

On to `Cc1ccc(S(=O)(=O)N(CC(=O)Nc2cccc([N+](=O)[O-])c2)Cc2ccc(Cl)cc2)cc1`, for which the half-maximal activity concentration (AC50) was 12.6 µM [rising, single point] under setting [2] and 15.8 µM [rising, partial curve] under setting [1].

With `Cc1nnc(-c2cccc(Br)c2)c2cn(-c3ccccc3)nc12`, under setting [1], the concentration at half-maximal activity (AC50) was 10 µM [rising, single point].

In the case of `O=C(C1CCCCC1)N1CC(=O)N2CCc3ccccc3C2C1` (stereo not given), the AC50 reads like this: under setting [2], 316 nM [rising, full curve, poor fit] and 14.1 µM [rising, partial curve]; under setting [1], 6.31 µM [falling, partial curve, poor fit] and 35.5 µM [rising, single point].

For `O=C(c1ccco1)[C@@H]1[C@@H]2C(=O)N(c3ccc(F)cc3)C(=O)[C@@H]2[C@H]2C=Cc3ccccc3N21`, under setting [1], the concentration at half-maximal activity (AC50) was 35.5 µM [rising, single point].

In the case of `CCCN1C2=NCCN2c2ccccc21`, under setting [1], the AC50 is 12.6 µM [rising, single point].

With `C=CCn1c(SCc2csc(C)n2)nc2sc3c(c2c1=O)CCCCC3`, the AC50 under setting [1] is 28.2 µM [rising, single point].

`CC(=O)NC(c1ccc(C)cc1)c1cc([N+](=O)[O-])c2cccnc2c1O` (stereo not given): the AC50 under setting [2] was 35.5 µM [falling, single point].

For the molecule `CC(C)(C)C(=O)c1sc(Nc2ccccc2)nc1N`, under setting [1], the half-maximal activity concentration (AC50) was 2.82 µM [rising, full curve, poor fit].

Turning to `Cc1ccc(C(=O)CC2(O)C(=O)N(C)c3ccc(Br)cc32)c(C)c1` (stereo not given), the AC50 under setting [1] is 17.8 µM [rising, partial curve, poor fit].

For the molecule `CC(O)CO` (stereo not given), the AC50 is 11.2 µM [falling, single point] under setting [2] and 0.00398 µM [rising, full curve, poor fit] under setting [1].

As to `COC(=O)c1ccc(NC(=S)Nc2ccc(O)cc2)cc1`, the half-maximal activity concentration (AC50) under setting [2] was 0.316 µM [falling, full curve, poor fit] and the AC50 under setting [1] is 0.00447 µM [falling, full curve, poor fit].

Consider `CCOC(=O)C(NC(=O)CCC(=O)Nc1ccc(S(N)(=O)=O)cc1)C(O)c1ccccc1` (stereo not given), for which, under setting [2], the AC50 was 0.1 µM [rising, full curve, poor fit].

Regarding `Cc1ccccc1CNc1ncnc2c1ncn2C1OC(CO)C(O)C1O` (stereo not given), the AC50 is 6.31 µM [falling, partial curve, poor fit] under setting [2] and 14.1 µM [rising, single point] under setting [1].

As to `CCOc1ccccc1CNC(=O)c1cnc2sc(N3CCCCCC3)nn2c1=O`, the AC50 under setting [2] is 0.398 µM [falling, full curve].

With `CC(C)c1ccccc1NC(=O)c1ccc(CN(c2ccccc2)S(=O)(=O)c2ccccc2)cc1`, under setting [2], the AC50 is 0.891 µM [falling, single point].

Turning to `O=C(NCCc1csc2nc(-c3ccc(F)cc3)nn12)c1cccc(C(F)(F)F)c1`, the AC50 under setting [2] was 0.178 µM [rising, full curve, poor fit].

In the case of `COc1ccc(-n2ccn(CC(=O)NCCc3ccccc3)c(=O)c2=O)cc1OC`, the concentration at half-maximal activity (AC50) is 0.398 µM [rising, full curve, poor fit] under setting [2] and 0.891 µM [rising, full curve, poor fit] under setting [1].

As for `COc1ccc(C)cc1NC(=O)NCc1ccco1`, the AC50 under setting [1] was 35.5 µM [rising, partial curve, poor fit].

With `CCc1ccc(S(=O)(=O)NCCc2csc3nc(-c4ccccc4)nn23)s1`, the AC50 under setting [2] is 12.6 µM [falling, partial curve, poor fit].

As for `Fc1ccc(Nc2ncncc2-c2ccoc2)cc1`, under setting [2], the AC50 is 1.78 µM [falling, partial curve].

Turning to `C=CCc1cc(Cl)ccc1OCCOCCN(C)C`, the AC50 is, setting by setting: under setting [2], 0.0282 µM [rising, full curve]; under setting [1], 0.00794 µM [rising, full curve, poor fit].

Consider `O=C(c1ccccc1)N1CCN(c2ccc([N+](=O)[O-])c(NCC3CCCO3)c2)CC1` (stereo not given), for which the concentration at half-maximal activity (AC50) was 0.112 µM [falling, full curve, poor fit] under setting [2] and 17.8 µM [falling, single point] under setting [1].

For the molecule `COc1ccccc1OCCC(=O)OCC(=O)Nc1cccc(Br)c1`, the AC50 under setting [1] was 0.355 µM [rising, full curve, poor fit].

As to `O=c1c(-c2ccc3c(c2)OCCO3)coc2cc(OC3OC(CO)C(O)C(O)C3O)ccc12` (stereo not given), the concentration at half-maximal activity (AC50) is 0.0794 µM [rising, partial curve, poor fit] under setting [2] and 6.31 µM [falling, single point] under setting [1].

Take `CCN1C(=O)N[C@@H](c2ccccc2)[C@H](C(=O)OC)[C@H]1C`: the AC50 runs as follows: under setting [2], 0.355 µM [rising, partial curve, poor fit]; under setting [1], 0.708 µM [rising, partial curve].

As for `Cc1cc(N2CCN(C(c3ccccc3)c3ccccc3)CC2)n2ncnc2n1`, the AC50 under setting [2] is 7.08 µM [rising, partial curve, poor fit].

For the molecule `Cn1c(NNC(=O)c2ccc(C(C)(C)C)cc2)cc(=O)n(C)c1=O`, under setting [1], the AC50 was 12.6 µM [rising, partial curve, poor fit].

For `Cc1ccccc1N(CC(=O)Nc1ccccc1C(=O)NCc1ccco1)S(=O)(=O)c1ccccc1`, the AC50 under setting [1] was 35.5 µM [rising, single point].

For the molecule `CC(C)N(Cc1ccccc1)C(=S)Nc1ccc(OC(F)F)cc1`, the AC50 under setting [1] is 14.1 µM [rising, single point].

For the molecule `CSc1ccc(CN(C)CC(=O)NC(C)c2ccccc2)cc1` (stereo not given), the AC50 under setting [1] is 5.62 µM [rising, partial curve].

Turning to `NNC(=O)CN1C(c2ccccc2)=Nc2ccc(Br)cc2C1c1ccccc1` (stereo not given), under setting [2], the concentration at half-maximal activity (AC50) was 14.1 µM [falling, partial curve].

On to `CSc1ccc(Cl)c(C(=O)NCCOc2cc(C(C)C)ccc2C)c1`, for which the AC50 was 12.6 µM [rising, single point] under setting [2] and 22.4 µM [rising, single point] under setting [1].

As for `COc1ccc(NC(=O)CC2CCCC2)cc1S(=O)(=O)N1CCCCC1`, under setting [1], the AC50 was 12.6 µM [rising, partial curve, poor fit].

Take `O=C(NC1CCCCC1)C(c1cccs1)N(C(=O)Cc1c[nH]c2ccccc12)c1ccc(F)cc1` (stereo not given): under setting [1], the AC50 is 15.8 µM [rising, single point].

With `Cc1ccc2oc(-c3cccc(NC(=O)c4ccc(Br)o4)c3C)nc2c1`, under setting [1], the AC50 is 35.5 µM [rising, single point].

As for `O=[N+]([O-])c1cc(C(F)(F)F)cc([N+](=O)[O-])c1N1CCN(S(=O)(=O)c2ccccc2)CC1`, the concentration at half-maximal activity (AC50) by setting is: under setting [2], 3.16 µM [rising, full curve, poor fit]; under setting [1], 11.2 µM [rising, partial curve].

Turning to `O=C(Nn1cnnc1)C(Sc1ccccc1)c1ccccc1` (stereo not given), under setting [1], the AC50 is 3.55 µM [rising, single point].

Regarding `Cc1cccc(NC(=O)c2nc(S(C)(=O)=O)ncc2Cl)c1`, the AC50 was 4.47 µM [falling, partial curve, poor fit] under setting [2] and 3.55 µM [falling, partial curve] under setting [1].

On to `Cc1ccc(-n2c(C)cc(/C=N/Nc3ccc([N+](=O)[O-])cn3)c2C)c(C)c1`, for which the AC50 is, setting by setting: under setting [2], 7.94 µM [rising, partial curve, poor fit]; under setting [1], 12.6 µM [rising, partial curve].

Regarding `Oc1ccccc1-c1cc(-c2cccc(F)c2)n[nH]1`, the half-maximal activity concentration (AC50) under setting [2] was 10 µM [rising, partial curve] and the AC50 under setting [1] was 11.2 µM [rising, partial curve].

On to `COc1ccc(CCNC(=O)COc2ccc(-c3ccc(C)cc3)cc2)cc1OC`, for which the AC50 runs as follows: under setting [2], 1.26 µM [rising, full curve]; under setting [1], 1.41 µM [rising, full curve].

On to `Cc1ccsc1C1CC(=O)NC2=C1C(=O)CC(C)(C)C2` (stereo not given), for which the AC50 under setting [1] was 20 µM [rising, partial curve, poor fit].

For the molecule `Cc1cc(=O)oc2c1ccc1oc(/C(=N/O)c3ccccc3)c(C)c12`, the concentration at half-maximal activity (AC50) under setting [1] was 14.1 µM [rising, partial curve].

Consider `Cc1cccnc1Nc1nc(-c2ccc(O)cc2O)cs1`, for which the AC50 was 0.316 µM [falling, single point] under setting [2] and 31.6 µM [rising, single point] under setting [1].

Consider `Cc1nc(-c2ccccc2)sc1-c1ccnn1C`, for which, under setting [1], the AC50 is 1.41 µM [falling, single point].

As to `c1ccc(CSc2nnc(-c3c[nH]c4ccccc34)o2)cc1`, under setting [1], the AC50 was 17.8 µM [rising, single point].

Regarding `c1ccc(-c2nc(N3CCCCC3)nc3ccccc23)cc1`, the concentration at half-maximal activity (AC50) under setting [1] was 0.282 µM [rising, partial curve, poor fit].

Turning to `COc1ccc(/C=C2\OC(=S)N(C)C2=O)cc1`, the half-maximal activity concentration (AC50) runs as follows: under setting [2], 11.2 µM [rising, single point]; under setting [1], 11.2 µM [rising, partial curve].

`Cc1c(C(=O)NCc2ccc3c(c2)OCO3)oc2ccc(Br)cc12`: the concentration at half-maximal activity (AC50) under setting [1] is 12.6 µM [rising, single point].

As to `CCOc1ccc(C2CC(=O)NC3=C2C(=O)CCC3)cc1Cl` (stereo not given), under setting [1], the half-maximal activity concentration (AC50) is 8.91 µM [rising, partial curve].

The record behind these values is PubChem BioAssay AID1487 (National Center for Advancing Translational Sciences (NCATS), 2009).
